Test results published in PubChem BioAssay AID540276 (National Center for Advancing Translational Sciences (NCATS), 2011).
The whole screen tested about 300,000 compounds, of which about 5,400 (1.8%) were called active. Inconclusive results, whose numbers are uncertain, are shown with a selection of clear calls. The call rests on the fitted dose curve; tested in HEK293 cells. Where the call is inconclusive, the potency comes from a doubtful curve fit.

Assay: qHTS for inhibitors of binding or entry into cells for Marburg Virus
Settings: Marburg virus pseudotyped entry inhibition, cell reporter; series mostly up to 37.8 µM
Potency means the concentration at half of the fitted maximal effect.

Row | SMILES | Potency
1 | CC1(C)Cc2c(c(N3CCOCC3)nc3sc(C(N)=O)c(N)c23)CO1 | inconclusive: 5.62 µM [inhibitor, full curve, poor fit]
2 | COc1cc(CCC(=O)Nc2ccc(Cl)c(C(F)(F)F)c2)cc(OC)c1OC | inconclusive: 11.2 µM [inhibitor, partial curve, poor fit]
3 | N#Cc1ccc(N2Cc3ccccc3C2=NC(=O)c2cccs2)cc1 | inconclusive: 35.5 µM [inhibitor, single point]
4 | CC(C)[C@H](NC(=O)Nc1cccc(Br)c1)C(=O)O | inactive
5 | CCn1c(CN2CCC(C)CC2)nc2cc(NC(=O)c3ccccc3[N+](=O)[O-])ccc21 | inconclusive: 6.31 µM [inhibitor, single point]
6 | CCCCn1c(SCC(=O)Nc2nnc(C(C)C)s2)nc2c1c(=O)n(C)c(=O)n2C | inactive
7 | O=C(COc1cc2oc(=O)c3c(c2cc1Cl)CCCC3)NCc1cccnc1 | inconclusive: 6.31 µM [activator, single point]
8 | N#CC1CN(C(c2ccccc2)c2ccccc2)C1 | inactive
9 | COc1ccc(-c2noc(CCC(=O)NCCc3ccccc3)n2)cc1 | inconclusive: 35.5 µM [activator, single point]
10 | O=C(NCCN1CCOCC1)c1cc(-c2ccc(Br)cc2)on1 | inactive
11 | Cc1ccccc1CC(=O)NC1CCN(C)CC1 | inconclusive: 3.16 µM [inhibitor, partial curve, poor fit]
12 | C=CCn1c(SCC#N)nc2c(c1=O)C(C)(C)Cc1ccccc1-2 | inconclusive: 35.5 µM [inhibitor, single point]
13 | CCc1cc(=O)n2[nH]c(-c3ccccc3)c(-c3ccccc3)c2n1 | inconclusive: 1 µM [inhibitor, full curve, poor fit]
14 | O=C(CSc1nc(-c2cccs2)cc(C(F)(F)F)n1)Nc1cc(OCC(F)(F)F)cc([N+](=O)[O-])c1 | active: 7.08 µM
15 | CCC(=O)N1CCN(c2ccc(NC(=O)c3ccc4c(c3)OCO4)cc2)CC1 | inconclusive: 2.91 µM [inhibitor, full curve, poor fit]
16 | CCCCn1c(SCc2nc(N)nc(Nc3ccccc3C)n2)nc2ccccc2c1=O | inconclusive: 35.5 µM [inhibitor, single point]
17 | Cc1ccc2c(c1)C(=O)C(=O)N2CCOc1ccccc1 | inconclusive: 14.1 µM [inhibitor, partial curve, poor fit]
18 | Cc1ccc(CNc2oc(-c3ccco3)nc2S(=O)(=O)c2ccccc2)cc1 | inactive
19 | c1ccc(-c2ccccc2OCCCN2CCCC2)cc1 | active: 5.62 µM
20 | S=C(Nc1ccccc1Cl)N(CCN1CCCCC1)Cc1ccco1 | inactive
21 | Clc1ccc(-c2cc3ccccc3nc2N2CCOCC2)cc1 | inconclusive: 35.5 µM [inhibitor, single point]
22 | COc1ccc(C(CNC(=O)COc2ccc(C)c(C)c2)N2CCCCC2)cc1 (stereo not drawn) | inconclusive: 20 µM [inhibitor, partial curve, poor fit]

Row | SMILES | Potency
23 | O=C(NCCSc1ncc(-c2ccc(F)cc2)[nH]1)c1ccc2c(c1)OCO2 | inconclusive: 35.5 µM [activator, single point]
24 | CCOc1c(Br)cc(C(N)=O)cc1OCc1ccccc1 | inconclusive: 0.562 µM [inhibitor, full curve, poor fit]
25 | CNC(=O)NC(=O)C(C)OC(=O)c1c2c(nc3ccccc13)/C(=C/c1cccs1)CC2 (stereo not drawn) | inconclusive: 4.47 µM [inhibitor, partial curve, poor fit]
26 | COc1cccc(CNC2CCCCCCC2)c1OC | inconclusive: 11.2 µM [inhibitor, partial curve, poor fit]
27 | COc1ccc(C(=O)NCC(=O)OCc2c(Cl)cccc2Cl)cc1OC | inconclusive: 14.1 µM [activator, partial curve, poor fit]
28 | COCc1c(Br)c(C)nc2sc3c(=O)[nH]nnc3c12 | inconclusive: 4.47 µM [activator, single point]
29 | O=C(c1ccc2noc(-c3ccccc3)c2c1)N1CCN(c2ccccc2)CC1 | inconclusive: 2.51 µM [activator, partial curve, poor fit]
30 | O=C(O)C(c1ccccc1)N1C(=O)/C(=C/c2cccs2)SC1=S (stereo not drawn) | inactive
31 | Cn1nnnc1SCc1cccc2ccccc12 | inactive
32 | NC(=O)Cc1nc(-c2ccc(Br)cc2)cs1 | inactive
33 | Brc1ccc(-c2ncc(-c3ccccc3)cn2)cc1 | inconclusive: 1.12 µM [activator, single point]
34 | CCc1nnc(NC(=O)Cn2ccc(C(F)(F)F)n2)s1 | inconclusive: 3.66 µM [activator, single point]
35 | CCCCNC(=O)/C=C/c1cccs1 | inconclusive: 1.12 µM [activator, partial curve, poor fit]
36 | Cc1cc(C)nc(N2C(=O)CC(C(C)c3ccccc3)C2=O)n1 (stereo not drawn) | inconclusive: 3.26 µM [activator, single point]
37 | CC(NC(=O)c1cc(Br)ccc1Cl)c1ccccc1 (stereo not drawn) | inconclusive: 3.55 µM [inhibitor, partial curve, poor fit]
38 | Nc1nonc1-n1nnc(C(=O)N/N=C/c2ccc(Br)cc2)c1-c1ccc2c(c1)OCO2 | inconclusive: 17.8 µM [inhibitor, single point]
39 | CCOC(=O)Cc1ccc(NC(=O)n2ncc3c(C)cccc32)cc1 | inactive
40 | CCOCCCNC(=O)/C(C#N)=C/c1ccc(-c2ccc(S(=O)(=O)N3CCOCC3)cc2)o1 | inconclusive: 15.8 µM [inhibitor, partial curve, poor fit]
41 | Cc1c(C(=O)N2CCC(Cc3ccccc3)CC2)cccc1[N+](=O)[O-] | inconclusive: 28.2 µM [inhibitor, partial curve, poor fit]
42 | CCOc1ccc(-c2cc(C(=O)NCCCn3ccnc3)c3cc(Br)ccc3n2)cc1 | inconclusive: 35.5 µM [inhibitor, single point]
43 | CCOc1c(Cl)cc(C(=O)Nc2ccccc2-c2ccccc2)cc1Cl | inconclusive: 20 µM [inhibitor, single point]

A stretch of the results above:
Row | SMILES | Potency
30 | O=C(O)C(c1ccccc1)N1C(=O)/C(=C/c2cccs2)SC1=S (stereo not drawn) | inactive
31 | Cn1nnnc1SCc1cccc2ccccc12 | inactive
